From patent US20090099218A1, “SYNTHESIS OF NOVEL TUBULIN POLYMERIZATION INHIBITORS: BENZOYLPHENYLUREA (BPU) SULFUR ANALOGS” (priority 2007, published 2009)
Some results were stated once for a whole list of compounds, not compound by compound.

Tested on: 11 pancreatic cancer cell line panel
Assay: Clonogenic growth, pancreatic cancer cell line panel
Format: cell-based
Details: E3JD13
Experimental: The cell lines ASPC1, MiaPaca2, HS766T, and L36PL were obtained from the American Tissue Culture Collection and are derived from pancreas carcinomas. The cell lines Panc1, Panc203, and Panc1005 are low-passage pancreas cell lines. The cell lines XPA3 and XPA4 are lowpassage. The cell lines E3LZ10 and E3JD13 are lowpassage pancreas cell lines. For clonogenic assessment, 500 cells per well were seeded in six-well plates with enriched RPMI (10% fetal bovine serum+1% penicillin/streptomycin) and exposed to increasing drug concentrations for 96 h. After this, the drug was removed, and the cells were allowed to grow for 14 days before manual colony counting. Each experiment was done in duplicate for each drug concentration and was carried out independently at least thrice. For MAPT protein and mRNA expression analysis, the cell lines were grown in six-well plates with enriched RPMI. When the cells reached a 60% to 70% confluence, they were washed twice with chilled PBS; lysis buffer was added to the plates; and the cells were scraped for protein extraction. An identical experimental set was lysed with RLT (Qiagen) for mRNA extraction.
Clonogenic growth was impaired at concentrations between 0.01 and 0.5 μmol/L (FIG. 35B), with no colony formation at higher doses in 9 of the 11 cell lines. […] Two isoforms of MAPT protein were detected (45 and 65 kDa). […]

SMILES | concentrations with a low level of colony viability in the most resistant cell line [µmol/L]
O=C(NC(=O)c1ccccc1[N+](=O)[O-])Nc1ccc(Sc2ncc(Br)cn2)cc1 [Compound 6n, 1-[4-(5-Bromopyrimidin-2-ylsulfanyl)phenyl]-3-(2-nitrobenzoyl)-urea] | ≥ 1
Nc1ccccc1C(=O)NC(=O)Nc1ccc(Sc2ncc(Br)cn2)cc1 [Compound 7d] | ≥ 1
